This note sets out measurements from doi:10.1101/2025.06.12.659319.

These are yes or no findings as the source states them, for the method shown. In cells and extracts the contact can be indirect. Some results given as binding are weak or reduced against the parent protein; the word gives no strength. Tags and fused reporters may be left off the sequences shown.

The target of the test is ΔNp63α mNLSbip (RLuc- and YFP-fusions, full length) (human) (UniProt Q9H3D4). Description: FRET or BRET. In general terms: Bioluminescence resonance energy transfer reports proximity on the nanometre scale.

B1: ΔNp63α mNLSbip (RLuc- and YFP-fusions, full length) (protein, UniProt Q9H3D4-2 1-586)
chain: MLYLENNAQTQFSEPQYTNLGLLNSMDQQIQNGSSSTSPYNTDHAQNSVTAPSPYAQPSSTFDALSPSPAIPSNTDYPGPHSFDVSFQQSSTAKSATWTYSTELKKLYCQIAKTCPIQIKVMTPPPQGAVIRAMPVYKKAEHVTEVVKRCPNHELSREFNEGQIAPPSHLIRVEGNSHAQYVEDPITGRQSVLVPYEPPQVGTEFTTVLYNFMCNSSCVGGMNRRPILIIVTLETRDGQVLGRRCFEARICACPGRDRKADEDSIRKQQVSDSTKNGDGTAAPFAQNTHGIQMTSIAAAASPDDELLYLPVRGRETYEMLLKIKESLELMQYLPQHTIETYRQQQQQQHQHLLQKQTSIQSPSSYGNSSPPLNKMNSMNKLPSVSQLINPQQRNALTPTTIPDGMGANIPMMGTHMPMAGDMNGLSPTQALPPPLSMPSTSHCTPPPPYPTDCSIVSFLARLGCSSCLDYFTTQGLTTIYQIEHYSMDDLASLKIPEQFRHAIWKGILDHRQLHEFSSPSHLLRTPSSASTVSVGSSETRGERVIDAVRFTLRQTISFPPRDEWNDFNFDMDARRNKQQRIKEEGE
As for B1, the binding result is given as “binds”.
